Source: article PMC2967539

Sequences of proteins named here, by UniProt entry; tags and fusion partners are left off. A change or cut given only in a name is not applied to a line headed by its entry.
UniProt P27487: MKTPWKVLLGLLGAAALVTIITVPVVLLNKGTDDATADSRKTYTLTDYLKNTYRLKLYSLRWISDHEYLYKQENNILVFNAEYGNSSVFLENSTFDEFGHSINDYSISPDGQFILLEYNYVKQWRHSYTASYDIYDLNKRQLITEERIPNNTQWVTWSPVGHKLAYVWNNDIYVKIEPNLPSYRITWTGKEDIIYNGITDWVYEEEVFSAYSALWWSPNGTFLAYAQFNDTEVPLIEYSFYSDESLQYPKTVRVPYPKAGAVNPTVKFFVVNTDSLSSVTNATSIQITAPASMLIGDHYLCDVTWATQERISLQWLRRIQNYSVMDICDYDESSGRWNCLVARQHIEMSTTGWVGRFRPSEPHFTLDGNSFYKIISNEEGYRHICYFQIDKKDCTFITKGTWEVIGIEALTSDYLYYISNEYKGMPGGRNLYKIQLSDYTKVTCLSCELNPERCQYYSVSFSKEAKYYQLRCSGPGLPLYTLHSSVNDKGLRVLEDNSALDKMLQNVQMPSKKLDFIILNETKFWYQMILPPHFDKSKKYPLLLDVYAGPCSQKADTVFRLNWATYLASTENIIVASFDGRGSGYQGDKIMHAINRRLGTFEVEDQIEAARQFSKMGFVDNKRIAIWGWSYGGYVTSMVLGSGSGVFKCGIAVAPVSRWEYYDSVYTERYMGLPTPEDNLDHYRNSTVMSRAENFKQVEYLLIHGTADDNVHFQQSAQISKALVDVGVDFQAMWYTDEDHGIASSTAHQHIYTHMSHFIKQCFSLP
UniProt P04610: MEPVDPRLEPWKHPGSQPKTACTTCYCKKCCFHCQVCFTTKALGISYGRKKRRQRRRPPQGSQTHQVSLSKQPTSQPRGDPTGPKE

Columns and labels:
[1] = biological target: human dipeptidyl peptidase IV (human) (UniProt P27487); assay: co-IP; crude membrane extracts instead of whole-cell lysates; immunoprecipitation tests
[2] = biological target: human dipeptidyl peptidase IV (human) (UniProt P27487); assay: co-IP; whole-cell lysates of Sf9 cells co-infected with Tat and DPPIV baculoviruses for 72 h, solubilised in PBS with 2% n-dodecyl-beta-D maltoside; anti-Tat mAb or anti-DPPIV pAb on protein-A/G-Sepharose, 4 h at 4 °C; washed with PBS pH 8.0, 0.5% n-octyl-beta-D-glucopyranoside; western blot
[3] = biological target: human dipeptidyl peptidase IV (human) (UniProt P27487); assay: co-IP; Tat/DPPIV co-expressing Sf9 cells solubilised with Triton X100
[4] = biological target: human dipeptidyl peptidase IV (human) (UniProt P27487); assay: condition: only mixed cell lysates of independently expressed proteins; co-IP; mixed cell lysates of independently expressed human-DPPIV and HIV1-Tat; immunoprecipitation tests
[5] = biological target: HIV1 transcription transactivator protein (Tat-BRU) (HIV-1 (BRU)) (UniProt P04610); assay: co-IP; whole-cell lysates of Sf9 cells co-infected with Tat and DPPIV baculoviruses for 72 h, solubilised in PBS with 2% n-dodecyl-beta-D maltoside; anti-Tat mAb or anti-DPPIV pAb on protein-A/G-Sepharose, 4 h at 4 °C; washed with PBS pH 8.0, 0.5% n-octyl-beta-D-glucopyranoside; western blot

Substance	binding [1]	binding [2]	binding [3]	binding [4]	binding [5]
HIV1 transcription transactivator protein (Tat-BRU) (from UniProt P04610 1-86)	no binding (only crude membrane extracts)	binds	no binding (only cells solubilised with Triton X100)	no binding	
human dipeptidyl peptidase IV (from UniProt P27487) (enzyme)					binds

No constants are given. Whether binding was seen depends on the method and setting. Binding seen in cells or lysates may run through a third protein. For some assays here: Binding calls can cover weak binding; strength is not graded here.
